Test results from patent publication US20200368249A1 (priority 2017, published 2020).
At least one compound was matched to its structure with a doubt left. Some results were stated once for a whole list of compounds, not compound by compound.

Key:
[1] = system: dormant Mtb; settings: 4-fold MIC, same conditions; cited from earlier work
[2] = system: Mab-RG; assay type: cell-based, M. abscessus; settings: 5 µM
[3] = system: Mtb CDC1551; test: time-kill kinetic assay, Mtb; assay type: cell-based, M. tuberculosis; settings: for inhibition of Mtb in CFU/mL: at 1, 2, 4 and 8-fold MIC
Method: To examine whether bacterial killing is concentration and/or time-dependent, a time-kill kinetic study was carried out with 8, 10, 11, 14, and 15. For Mtb, CDC1551 cultures diluted to an OD of 0.01 in 7H9 were added to a solid-white 384-well plate containing compounds at final concentrations of 0, 1×, 4× and 8× MIC in a total volume of 30 μl. DMSO control was also included. The plate was incubated for 6 days for Mtb. At every time point-0, 24, 48 and 72 h post-inoculation, an aliquot was taken, serially diluted and 50 μl plated onto 7H10 quad-plates supplemented with OADC. Colonies were counted after 3-4 weeks of incubation at 37° C. and CFU/ml was calculated. […] The plate was incubated for 3 days and colonies were counted after 5 days of incubation following plating. A 1-2 log10 decrease in CFU/ml is considered bactericidal. Luminescence was also read at every time point before taking an aliquot for serial dilution.

SMILES | inhibition of Mab-RG relative to untreated controls [2] [%] | inhibition of Mtb in CFU/mL [3] | further results
CO[C@H]1/C=C/O[C@@]2(C)Oc3c(C)c(O)c4c(O)c(c(/C=N/N5CCN(C)CC5)c(O)c4c3C2=O)NC(=O)/C(C)=C\C=C\[C@H](C)[C@H](O)[C@@H](C)[C@@H](O)[C@@H](C)[C@H](OC(C)=O)[C@@H]1C [RIF, Rifampicin] |  |  | killing of dormant bacilli [1]: did not kill dormant bacilli
ClC1CN=Cc2ccc3[n]2[Au+][n]2c(ccc2-c2nc4ccccc4nc2-3)C=NC1.F[P-](F)(F)(F)(F)F (centres unmarked) [Compound 11] | > 50 |  | 
C1=NCCCN=Cc2ccc3[n]2[Au+][n]2c1ccc2-c1nc2ccccc2nc1-3.F[P-](F)(F)(F)(F)F [Compound 8] |  | less than 1 log CFU/mL | 
CCOC1CN=Cc2ccc[n]2[Au+][n]2cccc2C=NC1.F[P-](F)(F)(F)(F)F (centres unmarked) [Compound 15] | > 50 |  | decrease in CFU/mL ([3]; 1 and 2-fold MIC, at 24 h, followed by recovery): < 1 log; decreases in CFU ([3]; 4- and 8-fold of MIC, within 24 h): 2-4 log
C1=NCCCCN=Cc2ccc3[n]2[Au+][n]2c1ccc2-c1nc2ccccc2nc1-3.F[P-](F)(F)(F)(F)F [Compound 10] | > 50 | less than 1 log CFU/mL | 
